Binding data for 1 molecule are collected here from patent US20190030126A1, “Inhibitors of the Interaction BCL-2 L10 / IP3 Receptors” (Universite Claude Bernard - Lyon 1, priority 2016, published 2019).

For this assay, the target named is T1, Flag-Nrh (human Bcl-2 L10/Nrh protein tagged with a Flag epitope) (human) (UniProt Q9HD36).
T1 sequence (looked up): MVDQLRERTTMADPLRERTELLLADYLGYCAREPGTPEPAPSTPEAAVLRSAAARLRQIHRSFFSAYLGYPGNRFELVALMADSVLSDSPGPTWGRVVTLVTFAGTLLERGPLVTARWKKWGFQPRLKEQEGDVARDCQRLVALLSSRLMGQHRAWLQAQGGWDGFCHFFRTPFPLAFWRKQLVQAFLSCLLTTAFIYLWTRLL
Description: streptavidin pull-down of biotin-labelled peptide (5 µg), HeLa cell extracts.

No constants are given. Whether binding was seen depends on the method and setting. Binding seen in cells or lysates may run through a third protein. Some entries that bind do so weakly or less than the wild type. Where a sequence is shown, tags or fusion partners need not be part of it.

Regarding MADPLRERTELLLADYLGYCARE (biotin-labelled (position not given)) [biotin-labelled Nrh 1-23 wild-type peptide], the binding entry is listed as “binds”.
